For at least one compound, name, drawing or mass did not settle the structure.
System: human MAFbx promoter
Experiment: Human MAFbx promoter luciferase reporter assay in C2C12 / C2C12.AR cells
Type: cell-based
Conditions: wild-type C2C12 cells, dexamethasone
Source text: The reporter genes pMAF3.1, pMAF2.4, pMAF948, pMAF400, and pMAF400-241 express firefly luciferase under the control of promoter regions of the human MAFbx gene and are described in Example 1. The rARC562G vector, encoding rat AR with a C562->G mutation in the first zinc binding module that disrupts binding of AR to DNA was described by Palvimo et al. (Mol Endocrinol 7: 1399-1407, 1993) pAR.4RKM (expressing AR with 4 R/K->M mutations in the nuclear localization sequence that is unable to enter the nucleus) and pAR.ABC (lacking the ligand binding domain) were described by Zhou et al. (J Biol Chem 269: 13115-13123, 1994). The pBabe.puro retroviral backbone described by Morgenstern and Land (Nucleic Acids Res 18: 3587-3596, 1990) was modified by introduction of a Not1 site. […]
Cells were seeded into wells of 24-well plates (5×10^5 cells/well) then maintained overnight in DMEM with 10% CDS-FBS. […] Cells were maintained for an additional 24 hours, at which time both firefly and renilla luciferase activity were determined using the Dual Luciferase Assay (Promega, Madison, Wis.) and a Berthold 96-well plate luminometer. […]

## C[C@@H]1C[C@H]2[C@@H]3CCC4=CC(=O)C=C[C@]4(C)[C@@]3(F)[C@@H](O)C[C@]2(C)[C@@]1(O)C(=O)CO [dexamethasone]
  activation of reporter lacking last 200 bases of the 5′UTR (pMAF400-241): abolished
  activation of the pMAF400 reporter: almost two-fold
